Residue numbers refer to the chain shown, from its start. Read-outs that look alike come from different tables or passages of the source. These are yes or no findings as the source states them, for the method shown. For part of these data: Binding seen in cells or lysates may run through a third protein. Some results given as binding are weak or reduced against the parent protein; the word gives no strength. For part of these data: Where a sequence is shown, tags or fusion partners need not be part of it.
How the values were obtained:
[1] = target: LexA-TMIGD1 cytoplasmic tail (pBTM116-TMIGD1, AA 241-262) (human) (UniProt Q6UXZ0); assay: two-hybrid
[2] = target: T1, TMIGD1/WT expressed in HEK293T cells (co-IPs with E3KARP, EBP50 and ezrin) (human) (UniProt Q6UXZ0); assay: co-IP
T1 sequence: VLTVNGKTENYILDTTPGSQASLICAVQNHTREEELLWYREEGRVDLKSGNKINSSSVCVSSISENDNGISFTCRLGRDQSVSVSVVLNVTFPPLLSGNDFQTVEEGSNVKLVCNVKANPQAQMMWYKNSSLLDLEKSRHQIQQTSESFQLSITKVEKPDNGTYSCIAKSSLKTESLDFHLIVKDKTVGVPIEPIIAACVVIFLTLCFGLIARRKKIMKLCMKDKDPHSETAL

The chains behind the UniProt entries cited, without tags or fusion partners. Residues count along the entry.
UniProt Q9JHL1, residues 140-307: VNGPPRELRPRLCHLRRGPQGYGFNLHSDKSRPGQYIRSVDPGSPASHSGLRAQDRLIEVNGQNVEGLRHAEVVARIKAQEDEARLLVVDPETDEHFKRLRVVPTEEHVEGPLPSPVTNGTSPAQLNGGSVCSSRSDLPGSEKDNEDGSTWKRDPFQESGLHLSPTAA
UniProt Q15599: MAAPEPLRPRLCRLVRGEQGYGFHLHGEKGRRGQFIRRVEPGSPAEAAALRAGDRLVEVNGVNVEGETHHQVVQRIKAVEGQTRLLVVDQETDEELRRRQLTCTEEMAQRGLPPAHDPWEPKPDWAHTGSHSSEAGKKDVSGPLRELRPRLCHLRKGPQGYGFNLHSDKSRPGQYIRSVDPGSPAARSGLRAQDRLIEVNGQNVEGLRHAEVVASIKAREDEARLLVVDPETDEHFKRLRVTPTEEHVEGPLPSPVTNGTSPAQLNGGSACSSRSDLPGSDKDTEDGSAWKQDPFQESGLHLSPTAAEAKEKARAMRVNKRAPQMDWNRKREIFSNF

[3] = target: GST-TMIGD1 (hTMIGD1 cytoplasmic tail, AA 242-262) (human) (UniProt Q6UXZ0); assay: pull-down
[4] = target: T1, TMIGD1/WT expressed in HEK293T cells (co-IPs with E3KARP, EBP50 and ezrin) (human); assay: co-IP; remark: listed apart in the source
[5] = target: T2, Flag-EGFP-TMIGD1 (EGFP-hTMIGD1, AA 30-262, EGFP inserted between AA211 and AA212 of TMIGD1) (human) (UniProt Q6UXZ0); assay: co-IP
T2 sequence: T1 sequence

## murine E3KARP/NHERF2 cDNA fragment AA 140-307 (yeast two-hybrid library clone) (from UniProt Q9JHL1 140-307) (domain or fragment)
[1]
  binding: binds

## hE3KARP full length (E3KARP/WT, AA 2-337), expressed in HEK293T cells (from UniProt Q15599 1-337)
[2]
  binding: binds
[3]
  binding: binds

## hEBP50_S162A (AA 1-358_S162A) expressed in HEK293T cells (from UniProt O14745 1-358)
[2]
  binding: binds

B1: hEBP50 with mutated PDZ domain 1 (hEBP50_P1M, AA 1-358_G25AF26A) expressed in HEK293T cells (protein, UniProt O14745 1-358)
chain: MSADAAAGAPLPRLCCLEKGPNGYAAHLHGEKGKLGQYIRLVEPGSPAEKAGLLAGDRLVEVNGENVEKETHQQVVSRIRAALNAVRLLVVDPETDEQLQKLGVQVREELLRAQEAPGQAEPPAAAEVQGAGNENEPREADKSHPEQRELRPRLCTMKKGPSGYGFNLHSDKSKPGQFIRSVDPDSPAEASGLRAQDRIVEVNGVCMEGKQHGDVVSAIRAGGDETKLLVVDRETDEFFKKCRVIPSQEHLNGPLPVPFTNGEIQKENSREALAEAALESPRPALVRSASSDTSEELNSQDSPPKQDSTAPSSTSSSDPILDFNISLAMAKERAHQKRSSKRAPQMDWSKKNELFSNL
[4]
  binding: binds weakly

B2: hEBP50 with mutated PDZ domain 2 (hEBP50_P2M, AA 1-358_G165AF166A) expressed in HEK293T cells (protein, UniProt O14745 1-358)
chain: B1 chain with A25G, A26F, G165A, F166A
[4]
  binding: binds weakly

B3: hEBP50_S339AS340A (AA 1-358_S339AS340A) expressed in HEK293T cells (protein, UniProt O14745 1-358)
chain: B1 chain with A25G, A26F, S339A, S340A
[4]
  binding: binds

B4: hEBP50_S280AS302A (AA 1-358_S280AS302A) expressed in HEK293T cells (protein, UniProt O14745 1-358)
chain: B1 chain with A25G, A26F, S280A, S302A
[4]
  binding: binds

B5: untagged hTMIGD1 full length (TMIGD1/WT, AA 1-262, pcDNA3) expressed in HEK293T cells (protein, UniProt Q6UXZ0 30-262)
chain: T1 sequence
[5]
  binding: binds

From article doi:10.1101/2021.01.25.428038 (bioRxiv, 2021)
